For the experiment, the target named is melanocortin receptor 2 (MC2R). Briefly: calcium ion signal in CHO-K1 cells expressing MC2R, taken by the filing as a measure of binding.

No constants are given. Whether binding was seen depends on the method and setting. A result given as binding can be weak or reduced; the word gives no strength.

We go through 2 molecules from patent US20220401521A1.

B1: high-purity ACTH (human sequence SEQ ID NO: 3, 99.88%) (peptide)
peptide: SYSMEHFRWGKPVGKKRRPVKVYPNGAEDESAEAFPLEF
Regarding B1, the binding entry is listed as “binds”.

B2: low-purity ACTH (human sequence SEQ ID NO: 3, 75.72%) (peptide)
peptide: B1 peptide
With B2, the binding entry is reported as “binds”.
